Some of the results follow.
What was measured:
Test in all cases: log2 fold change, soluble protein after heating vs DMSO (PISA); higher = thermal stabilisation; K562 lysate, 10 uM; active = over 0.2 and 3.5 SD of the protein, either way, in both replicates (recomputed)
erlotinib = compound: C#Cc1cccc(Nc2ncnc3cc(OCCOC)c(OCCOC)cc23)c1 [erlotinib]
Outline: (§1)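 Log-two fold change in thermal stability relative to solvent controls is reported from duplicates. For each sample, crude K562 extract from dounce-homogenised pellets in PBS pH 7.4 with 1 mM MgCl2, at 1 mg/mL protein, was treated with 10 μM compound for 30 min. Aliquots heated for 3 min across 48°C-58°C were pooled, brought to 0.5% NP-40 at 4°C and cleared at 21,000xg for 90 min. The supernatant was quantified by TMTpro 16plex LC-MS/MS with channel sums equalised.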

Chains of the proteins cited; added tags and fusions are not shown. Lines headed by an entry give the natural chain unless they say otherwise; changes in a name come on top.
UniProt O75190: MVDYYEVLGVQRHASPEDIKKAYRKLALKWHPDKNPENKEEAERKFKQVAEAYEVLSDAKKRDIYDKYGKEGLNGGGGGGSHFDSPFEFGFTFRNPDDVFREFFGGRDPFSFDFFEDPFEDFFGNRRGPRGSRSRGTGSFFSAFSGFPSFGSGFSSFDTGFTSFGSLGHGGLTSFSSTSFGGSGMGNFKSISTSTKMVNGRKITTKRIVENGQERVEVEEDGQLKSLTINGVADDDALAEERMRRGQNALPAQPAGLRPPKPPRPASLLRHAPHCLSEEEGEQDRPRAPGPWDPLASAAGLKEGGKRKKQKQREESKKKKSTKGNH
UniProt Q9UBS4: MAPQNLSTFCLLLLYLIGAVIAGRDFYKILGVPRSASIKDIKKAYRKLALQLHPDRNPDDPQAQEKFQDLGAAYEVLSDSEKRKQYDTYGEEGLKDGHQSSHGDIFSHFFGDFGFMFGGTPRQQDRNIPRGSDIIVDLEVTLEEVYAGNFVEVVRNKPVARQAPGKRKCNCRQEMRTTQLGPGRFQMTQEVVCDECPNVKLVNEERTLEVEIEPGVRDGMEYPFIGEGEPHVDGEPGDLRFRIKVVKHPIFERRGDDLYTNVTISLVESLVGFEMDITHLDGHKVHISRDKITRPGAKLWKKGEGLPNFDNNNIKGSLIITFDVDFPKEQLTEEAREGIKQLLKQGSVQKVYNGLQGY
UniProt Q9NVM6: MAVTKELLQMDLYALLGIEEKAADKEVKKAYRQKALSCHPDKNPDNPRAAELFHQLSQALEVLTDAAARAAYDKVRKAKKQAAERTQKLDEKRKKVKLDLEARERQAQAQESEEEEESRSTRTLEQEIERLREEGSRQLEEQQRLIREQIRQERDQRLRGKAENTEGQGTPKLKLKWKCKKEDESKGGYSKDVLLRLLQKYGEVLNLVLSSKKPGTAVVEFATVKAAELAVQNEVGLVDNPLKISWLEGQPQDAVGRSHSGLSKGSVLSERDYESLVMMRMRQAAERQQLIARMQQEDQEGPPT
UniProt Q6IAN0: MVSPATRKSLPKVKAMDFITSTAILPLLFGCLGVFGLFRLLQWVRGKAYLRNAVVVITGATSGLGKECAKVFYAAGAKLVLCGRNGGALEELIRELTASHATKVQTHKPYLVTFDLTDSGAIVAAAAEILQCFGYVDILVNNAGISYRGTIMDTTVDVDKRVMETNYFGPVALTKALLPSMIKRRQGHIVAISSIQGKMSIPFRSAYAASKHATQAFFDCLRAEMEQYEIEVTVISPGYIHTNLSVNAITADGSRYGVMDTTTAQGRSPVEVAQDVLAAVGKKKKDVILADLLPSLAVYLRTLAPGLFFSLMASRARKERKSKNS
UniProt Q9Y2L1: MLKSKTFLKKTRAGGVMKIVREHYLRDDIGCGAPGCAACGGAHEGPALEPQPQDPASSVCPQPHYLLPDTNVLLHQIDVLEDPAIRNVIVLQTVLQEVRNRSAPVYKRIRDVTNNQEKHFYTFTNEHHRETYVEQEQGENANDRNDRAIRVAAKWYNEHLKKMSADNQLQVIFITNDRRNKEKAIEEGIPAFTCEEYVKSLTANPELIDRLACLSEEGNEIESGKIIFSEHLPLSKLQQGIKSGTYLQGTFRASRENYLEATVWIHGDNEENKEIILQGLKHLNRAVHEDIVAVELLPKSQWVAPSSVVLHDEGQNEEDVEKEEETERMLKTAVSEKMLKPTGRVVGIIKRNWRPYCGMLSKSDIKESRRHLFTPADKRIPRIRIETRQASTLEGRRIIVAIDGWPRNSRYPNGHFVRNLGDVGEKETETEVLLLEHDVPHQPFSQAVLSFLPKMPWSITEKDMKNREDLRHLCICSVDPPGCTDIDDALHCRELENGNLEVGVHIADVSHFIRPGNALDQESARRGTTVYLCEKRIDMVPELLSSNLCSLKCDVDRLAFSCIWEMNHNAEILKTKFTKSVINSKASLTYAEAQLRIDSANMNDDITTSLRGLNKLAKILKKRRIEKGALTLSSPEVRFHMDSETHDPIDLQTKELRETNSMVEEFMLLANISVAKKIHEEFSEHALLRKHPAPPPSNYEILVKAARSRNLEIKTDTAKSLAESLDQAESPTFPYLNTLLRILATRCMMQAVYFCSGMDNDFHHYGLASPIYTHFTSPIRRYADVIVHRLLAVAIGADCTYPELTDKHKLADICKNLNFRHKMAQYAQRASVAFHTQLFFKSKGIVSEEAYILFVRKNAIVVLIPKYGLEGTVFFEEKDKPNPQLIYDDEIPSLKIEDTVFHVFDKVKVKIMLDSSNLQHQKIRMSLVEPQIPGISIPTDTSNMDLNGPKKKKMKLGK
UniProt O60231: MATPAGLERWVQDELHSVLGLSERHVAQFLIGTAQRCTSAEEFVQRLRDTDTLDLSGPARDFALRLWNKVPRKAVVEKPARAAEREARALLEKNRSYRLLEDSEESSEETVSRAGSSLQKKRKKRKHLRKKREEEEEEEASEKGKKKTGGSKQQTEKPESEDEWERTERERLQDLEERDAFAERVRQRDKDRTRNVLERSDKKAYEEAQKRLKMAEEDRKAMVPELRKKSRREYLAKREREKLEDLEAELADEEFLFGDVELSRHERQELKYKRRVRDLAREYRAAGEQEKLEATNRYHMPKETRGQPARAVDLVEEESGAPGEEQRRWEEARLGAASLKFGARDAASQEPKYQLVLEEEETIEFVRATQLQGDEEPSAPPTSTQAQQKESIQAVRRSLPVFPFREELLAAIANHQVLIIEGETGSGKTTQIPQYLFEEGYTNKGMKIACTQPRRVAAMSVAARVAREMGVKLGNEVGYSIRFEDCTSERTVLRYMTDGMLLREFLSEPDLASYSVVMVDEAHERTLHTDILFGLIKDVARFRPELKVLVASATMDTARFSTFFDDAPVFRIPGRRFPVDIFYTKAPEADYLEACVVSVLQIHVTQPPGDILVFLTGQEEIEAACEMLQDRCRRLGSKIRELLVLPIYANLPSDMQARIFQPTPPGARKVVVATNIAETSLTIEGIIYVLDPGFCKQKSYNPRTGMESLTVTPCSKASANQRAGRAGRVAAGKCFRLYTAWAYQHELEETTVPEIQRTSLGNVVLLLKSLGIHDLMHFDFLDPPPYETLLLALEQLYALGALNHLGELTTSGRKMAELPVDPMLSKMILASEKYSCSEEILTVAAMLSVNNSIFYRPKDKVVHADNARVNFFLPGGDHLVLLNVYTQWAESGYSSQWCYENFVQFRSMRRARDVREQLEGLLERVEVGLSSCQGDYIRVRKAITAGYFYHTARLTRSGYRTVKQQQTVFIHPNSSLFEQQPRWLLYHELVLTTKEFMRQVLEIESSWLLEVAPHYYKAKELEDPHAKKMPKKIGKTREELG
UniProt O76075: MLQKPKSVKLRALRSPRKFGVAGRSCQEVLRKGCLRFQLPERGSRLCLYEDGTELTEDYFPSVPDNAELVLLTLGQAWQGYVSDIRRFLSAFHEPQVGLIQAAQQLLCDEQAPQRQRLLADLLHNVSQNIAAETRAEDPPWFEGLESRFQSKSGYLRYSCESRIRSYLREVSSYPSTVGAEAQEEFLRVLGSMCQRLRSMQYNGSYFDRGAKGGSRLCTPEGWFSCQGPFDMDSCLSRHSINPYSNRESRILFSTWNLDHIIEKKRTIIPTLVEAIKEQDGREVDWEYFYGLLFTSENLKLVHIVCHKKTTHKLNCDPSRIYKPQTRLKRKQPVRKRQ
UniProt Q9BTZ2: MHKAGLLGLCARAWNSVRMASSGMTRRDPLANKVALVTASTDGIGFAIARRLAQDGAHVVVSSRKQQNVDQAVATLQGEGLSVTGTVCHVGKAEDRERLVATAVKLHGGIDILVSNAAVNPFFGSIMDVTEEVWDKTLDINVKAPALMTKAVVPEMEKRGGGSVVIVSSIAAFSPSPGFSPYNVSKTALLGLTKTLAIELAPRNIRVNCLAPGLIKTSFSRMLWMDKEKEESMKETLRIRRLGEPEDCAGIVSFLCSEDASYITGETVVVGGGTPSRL
UniProt Q99615: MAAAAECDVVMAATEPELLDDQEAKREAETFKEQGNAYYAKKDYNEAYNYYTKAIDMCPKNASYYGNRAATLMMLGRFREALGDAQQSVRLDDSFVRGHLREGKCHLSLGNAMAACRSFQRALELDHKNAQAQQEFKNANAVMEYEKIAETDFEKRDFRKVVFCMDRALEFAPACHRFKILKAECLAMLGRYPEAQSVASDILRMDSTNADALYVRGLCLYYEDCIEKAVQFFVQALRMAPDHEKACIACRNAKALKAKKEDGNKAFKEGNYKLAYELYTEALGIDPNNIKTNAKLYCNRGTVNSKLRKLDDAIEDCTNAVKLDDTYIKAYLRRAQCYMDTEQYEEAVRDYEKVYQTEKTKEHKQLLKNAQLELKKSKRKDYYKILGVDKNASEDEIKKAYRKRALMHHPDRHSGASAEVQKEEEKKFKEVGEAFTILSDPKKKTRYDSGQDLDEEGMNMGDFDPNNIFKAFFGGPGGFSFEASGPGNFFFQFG
UniProt Q9NVR5: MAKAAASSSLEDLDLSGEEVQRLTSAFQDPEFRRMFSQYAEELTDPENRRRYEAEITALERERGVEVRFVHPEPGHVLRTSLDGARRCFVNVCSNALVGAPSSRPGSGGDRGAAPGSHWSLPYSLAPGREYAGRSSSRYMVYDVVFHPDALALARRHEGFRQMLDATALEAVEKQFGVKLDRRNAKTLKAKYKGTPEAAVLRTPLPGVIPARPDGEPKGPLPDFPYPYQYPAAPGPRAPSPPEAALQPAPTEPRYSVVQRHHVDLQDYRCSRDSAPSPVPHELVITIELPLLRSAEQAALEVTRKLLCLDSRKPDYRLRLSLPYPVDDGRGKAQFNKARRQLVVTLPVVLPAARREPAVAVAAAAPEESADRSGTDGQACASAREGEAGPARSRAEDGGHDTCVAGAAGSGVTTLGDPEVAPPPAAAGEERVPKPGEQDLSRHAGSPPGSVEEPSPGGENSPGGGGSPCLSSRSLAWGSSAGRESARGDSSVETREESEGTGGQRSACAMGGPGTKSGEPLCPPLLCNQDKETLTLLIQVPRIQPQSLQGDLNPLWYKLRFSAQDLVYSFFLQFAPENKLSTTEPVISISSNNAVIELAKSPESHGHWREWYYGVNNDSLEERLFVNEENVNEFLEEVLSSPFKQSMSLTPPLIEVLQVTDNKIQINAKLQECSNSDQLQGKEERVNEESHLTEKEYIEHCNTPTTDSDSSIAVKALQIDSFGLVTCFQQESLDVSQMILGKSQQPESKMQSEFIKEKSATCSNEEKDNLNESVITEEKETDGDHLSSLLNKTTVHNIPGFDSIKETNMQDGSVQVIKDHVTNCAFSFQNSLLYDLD
UniProt P49366: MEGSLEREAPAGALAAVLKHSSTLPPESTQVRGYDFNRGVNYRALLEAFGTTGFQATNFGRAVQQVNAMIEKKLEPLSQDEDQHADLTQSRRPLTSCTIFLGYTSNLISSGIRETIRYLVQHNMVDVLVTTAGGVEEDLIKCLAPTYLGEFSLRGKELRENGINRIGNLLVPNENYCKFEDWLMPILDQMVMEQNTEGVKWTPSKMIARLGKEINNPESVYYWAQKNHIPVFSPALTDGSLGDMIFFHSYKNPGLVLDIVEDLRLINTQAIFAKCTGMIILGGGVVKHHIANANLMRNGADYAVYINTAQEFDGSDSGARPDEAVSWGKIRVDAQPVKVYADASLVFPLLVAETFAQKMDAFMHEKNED
UniProt Q9H3Z4: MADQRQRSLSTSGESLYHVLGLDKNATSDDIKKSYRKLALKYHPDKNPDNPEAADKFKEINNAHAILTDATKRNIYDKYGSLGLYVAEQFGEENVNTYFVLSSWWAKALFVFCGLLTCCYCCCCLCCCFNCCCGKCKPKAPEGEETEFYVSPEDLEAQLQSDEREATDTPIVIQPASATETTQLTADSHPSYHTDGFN
UniProt Q9BU89: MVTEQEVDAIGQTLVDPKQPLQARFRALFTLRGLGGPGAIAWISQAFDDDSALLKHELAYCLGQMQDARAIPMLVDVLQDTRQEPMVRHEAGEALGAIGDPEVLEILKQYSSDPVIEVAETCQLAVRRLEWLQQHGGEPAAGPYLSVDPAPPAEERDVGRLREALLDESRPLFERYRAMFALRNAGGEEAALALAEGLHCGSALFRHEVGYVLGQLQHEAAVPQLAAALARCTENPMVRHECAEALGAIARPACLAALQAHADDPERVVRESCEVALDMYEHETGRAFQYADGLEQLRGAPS

[1] = compound: C/C(=N\NC(=O)C1=CC(=CC=C1)S(=O)(=O)N2CCOCC2)/C3=C(C=CC(=C3)Cl)O
Outline: as §1

[2] = compound: C1=CC(=CC=C1C2=NC3=C(N2)C=C(C=C3)C(=O)N)OC4=CC=C(C=C4)Cl
Outline: as §1

[3] = compound: C1=CC2=C(C=CC(=C2)/C=C\3/C(=O)NC(=NCC4=CC=CS4)S3)N=C1
Outline: as §1

[4] = compound: C1=CC2=NC=CN=C2C=C1/C=C/3\C(=O)NC(=O)S3
Outline: as §1

[5] = compound: C1=CC=C(C=C1)C2=NC(=C(N2)C3=CC=NC=C3)C4=CC(=C(C=C4)Cl)O
Outline: as §1

[6] = compound: C1=CC=C2C(=C1)C3=NNC4=CC=CC(=C43)C2=O
Outline: as §1

[7] = compound: C1CCN(C1)C(=O)NC2=CC=CC(=C2)NC3=NC=C(C(=N3)NCCC4=CN=CN4)Br
Outline: as §1

[8] = compound: C1CN(CCC1(CC2=CC=C(C=C2)Cl)N)C3=NC=NC4=C3C=CN4
Outline: as §1

IRAK-1-4 Inhibitor I = compound: C1COCCN1CCN2C3=CC=CC=C3N=C2NC(=O)C4=CC(=CC=C4)[N+](=O)[O-] [IRAK-1-4 Inhibitor I]
Outline: as §1

ibrutinib = compound: C=CC(=O)N1CCC[C@@H](n2nc(-c3ccc(Oc4ccccc4)cc3)c3c(N)ncnc32)C1 [ibrutinib]
Outline: as §1

[9] = compound: CC(=O)c1cnc2ccc(-c3cc(Cl)c(O)c(Cl)c3)nc2c1N[C@H]1CC[C@H](CN(C)C)CC1
Outline: as §1

ralimetinib = compound: CC(C)(C)Cn1c(N)nc2ccc(-c3[nH]c(C(C)(C)C)nc3-c3ccc(F)cc3)nc21 [ralimetinib]
Outline: as §1

[10] = compound: CC(C)(O)CC(=O)NCCn1ccc2ncnc(Nc3ccc(Oc4cccc(C(F)(F)F)c4)c(Cl)c3)c21
Outline: as §1

[11] = compound: CC(C)C1=C2N=C(C=C(N2N=C1)NCC3=CC=CC=C3)NCCCCCCN
Outline: as §1

[12] = compound: CC1=C(C(CC(=O)N1)C2=CC=C(C=C2)C(F)(F)F)C(=O)NC3=C(C=C4C(=C3)C=NN4)F
Outline: as §1

[13] = compound: CC1=C(C2=C(C=C1)C(=O)C3=CC=CC=C3N2CCCN)C
Outline: as §1

[14] = compound: CC1=C(C=C(C=C1)NC(=O)C2=CC(=CC=C2)C(C)(C)C#N)NC3=CC4=C(C=C3)N=CN(C4=O)C
Outline: as §1

[15] = compound: CC1=C(C=C(C=C1)NC(=O)C2=CC(=CC=C2)N(C)C)NC(=O)C3=CC=C(C=C3)O
Outline: as §1

[16] = compound: CC1=CC=C(C=C1)SC2=C3C=C(SC3=CN=C2)C(=O)N
Outline: as §1

Measured: log2 fold change

DNAJB6 (UniProt O75190)
inactive: erlotinib -0.007 | [1] -0.012 | [2] -0.036 | [3] -0.014 | [4] 0.016 | [5] 0.02 | [6] 0.051 | [7] -0.029 | [8] 0.013 | IRAK-1-4 Inhibitor I -0.034 | ibrutinib -0.086 | [9] 0.019 | ralimetinib 0.014 | [10] -0.069 | [11] -0.023 | [12] 0.061 | [13] -0.032 | [14] 0.021 | [15] 0.058 | [16] 0

DNAJB11 (UniProt Q9UBS4)
inactive: erlotinib -0.006 | [1] -0.01 | [2] 0.002 | [3] -0.02 | [4] -0.045 | [5] -0.024 | [6] -0.021 | [7] -0.009 | [8] 0.011 | IRAK-1-4 Inhibitor I 0.018 | ibrutinib -0.026 | [9] -0.003 | ralimetinib 0.019 | [10] -0.005 | [11] 0.009 | [12] 0.018 | [13] 0.007 | [14] 0.011 | [15] -0.004 | [16] -0.017

DNAJC17 (UniProt Q9NVM6)
inactive: erlotinib -0.011 | [1] 0.017 | [2] 0.002 | [3] -0.016 | [4] -0.016 | [5] -0.028 | [6] -0.01 | [7] -0.013 | [8] -0.007 | IRAK-1-4 Inhibitor I -0.011 | ibrutinib 0.029 | [9] 0.032 | ralimetinib 0.098 | [10] 0.061 | [11] -0.025 | [12] 0.02 | [13] 0.005 | [14] -0.033 | [15] 0.028 | [16] -0.011

DMTF1 (UniProt Q9Y222)
inactive: erlotinib -0.011 | [1] -0.021 | [2] -0.016 | [3] 0.069 | [4] 0.002 | [5] 0.048 | [6] -0.04 | [7] -0.154 | [8] 0.071 | IRAK-1-4 Inhibitor I 0.04 | ibrutinib 0.012 | [9] 0.115 | ralimetinib 0.004 | [10] 0.013 | [11] -0.033 | [12] 0.004 | [13] -0.099 | [14] -0.016 | [15] -0.007 | [16] 0.05

DHRS7B (UniProt Q6IAN0)
inactive: erlotinib -0.023 | [1] -0.035 | [2] -0.011 | [3] -0.038 | [4] -0.063 | [5] -0.046 | [6] 0.006 | [7] -0.04 | [8] 0.046 | IRAK-1-4 Inhibitor I 0.044 | ibrutinib -0.045 | [9] 0.069 | ralimetinib -0.01 | [10] 0.091 | [11] 0.011 | [12] -0.055 | [13] -0.007 | [14] -0.058 | [15] -0.033 | [16] 0.042

DIS3 (UniProt Q9Y2L1)
inactive: erlotinib 0.018 | [1] 0.039 | [2] 0.01 | [3] -0.004 | [4] 0.002 | [5] -0.01 | [6] -0.017 | [7] 0.027 | [8] 0.031 | IRAK-1-4 Inhibitor I 0.012 | ibrutinib 0.011 | [9] 0.004 | ralimetinib 0.006 | [10] 0 | [11] 0.035 | [12] -0.017 | [13] -0.003 | [14] 0.009 | [15] 0.005 | [16] 0.018

DHX16 (UniProt O60231)
inactive: erlotinib 0.004 | [1] -0.037 | [2] 0.013 | [3] -0.003 | [4] -0.051 | [5] -0.001 | [6] 0 | [7] -0.003 | [8] 0.035 | IRAK-1-4 Inhibitor I 0.006 | ibrutinib -0.015 | [9] 0.004 | ralimetinib 0.014 | [10] -0.006 | [11] 0.029 | [12] 0.009 | [13] -0.011 | [14] 0.008 | [15] 0.003 | [16] 0.042

DNM1L isoform 6 (UniProt O00429)
inactive: erlotinib 0.012 | [1] 0.019 | [2] 0.019 | [3] 0.015 | [4] 0.002 | [5] -0.007 | [6] -0.034 | [7] -0.025 | [8] 0.013 | IRAK-1-4 Inhibitor I 0.007 | ibrutinib 0.009 | [9] 0.002 | ralimetinib 0.023 | [10] -0.014 | [11] -0.008 | [12] 0.003 | [13] 0.021 | [14] 0.005 | [15] 0 | [16] 0.01

DFFB (UniProt O76075)
inactive: erlotinib -0.055 | [1] 0.062 | [2] 0.071 | [3] 0.048 | [4] 0.084 | [5] 0.047 | [6] 0 | [7] 0.013 | [8] -0.019 | IRAK-1-4 Inhibitor I 0.008 | ibrutinib 0.076 | [9] -0.01 | ralimetinib 0.054 | [10] -0.068 | [11] -0.027 | [12] 0.044 | [13] 0.08 | [14] 0.033 | [15] -0.07 | [16] -0.039

DNAH8 (UniProt Q96JB1)
inactive: erlotinib -0.031 | [1] -0.044 | [2] 0.588 | [3] -0.001 | [4] -0.03 | [5] -0.025 | [6] -0.074 | [7] -0.032 | [8] 0.116 | IRAK-1-4 Inhibitor I 0.068 | ibrutinib 0.067 | [9] -0.117 | ralimetinib -0.001 | [10] -0.207 | [11] 0.003 | [12] -0.111 | [13] -0.04 | [14] 0.012 | [15] 0.019 | [16] -0.32

DHRS4 (UniProt Q9BTZ2)
inactive: erlotinib -0.036 | [1] 0.007 | [2] 0.025 | [3] 0.026 | [4] -0.021 | [5] -0.015 | [6] 0.049 | [7] -0.002 | [8] -0.008 | IRAK-1-4 Inhibitor I 0.048 | ibrutinib -0.035 | [9] 0.004 | ralimetinib 0.058 | [10] -0.014 | [11] 0.038 | [12] -0.001 | [13] -0.026 | [14] -0.031 | [15] 0.056 | [16] -0.093

DNAJC7 (UniProt Q99615)
inactive: erlotinib -0.024 | [1] -0.036 | [2] -0.076 | [3] 0.022 | [4] 0.007 | [5] 0.026 | [6] -0.055 | [7] -0.01 | [8] -0.03 | IRAK-1-4 Inhibitor I -0.07 | ibrutinib 0.019 | [9] 0.029 | ralimetinib 0.04 | [10] 0.083 | [11] 0.014 | [12] -0.005 | [13] -0.002 | [14] 0.078 | [15] -0.003 | [16] 0.028

DNAAF2 (UniProt Q9NVR5)
inactive: erlotinib 0.066 | [1] -0.032 | [2] -0.046 | [3] 0.026 | [4] -0.029 | [5] 0.027 | [6] -0.048 | [7] 0.029 | [8] 0.142 | IRAK-1-4 Inhibitor I 0.058 | ibrutinib 0.027 | [9] -0.001 | ralimetinib 0.013 | [10] -0.019 | [11] -0.049 | [12] -0.02 | [13] -0.015 | [14] 0.051 | [15] -0.023 | [16] -0.048

DHPS (UniProt P49366)
inactive: erlotinib -0.02 | [1] 0.005 | [2] 0.025 | [3] 0.006 | [4] -0.01 | [5] 0.003 | [6] -0.011 | [7] 0.016 | [8] 0.002 | IRAK-1-4 Inhibitor I 0.019 | ibrutinib 0.009 | [9] -0.018 | ralimetinib -0.013 | [10] -0.012 | [11] -0.005 | [12] -0.024 | [13] -0.027 | [14] 0.047 | [15] -0.022 | [16] -0.018

DNAJC5 (UniProt Q9H3Z4)
inactive: erlotinib -0.003 | [1] 0.037 | [2] -0.018 | [3] -0.021 | [4] 0.053 | [5] 0.033 | [6] 0 | [7] 0.049 | [8] -0.005 | IRAK-1-4 Inhibitor I -0.012 | ibrutinib -0.029 | [9] -0.072 | ralimetinib -0.013 | [10] -0.043 | [11] -0.044 | [12] 0.06 | [13] -0.008 | [14] 0.048 | [15] -0.036 | [16] -0.116

DOHH (UniProt Q9BU89)
inactive: erlotinib 0.011 | [1] -0.051 | [2] -0.01 | [3] 0.005 | [4] -0.055 | [5] 0.03 | [6] -0.042 | [7] -0.029 | [8] 0.078 | IRAK-1-4 Inhibitor I 0.043 | ibrutinib -0.039 | [9] -0.02 | ralimetinib 0.065 | [10] -0.025 | [11] 0.008 | [12] -0.006 | [13] 0.016 | [14] 0.037 | [15] 0 | [16] 0.066

From the supplement of paper PMC10849652
